Experimental findings from the supplement of paper PMC4604168 (melanoma cell lines) are described below.

The list shows a part of the results. Single values are uncertain, as repeats are few or missing.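 Imaging used 1,536-well plates; nuclei positive for cleaved PARP by antibody were divided by total DNA-stained nuclei to yield the apoptosis fraction. Doses for screening kept most cells viable, and cell lines differ markedly in resting and induced cleaved-PARP levels.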

For the assay, the system named is WM115. Put plainly: cleaved PARP positive nuclei fraction relative to DMSO control; melanoma cells; higher = more apoptosis. The settings on record: library dose: low library concentration; 72 h.
As for `Cn1cnc2c(F)c(Nc3ccc(Br)cc3Cl)c(C(=O)NOCCO)cc21` [selumetinib] + COc1ccc(-c2ccc3c(N4CCOCC4)nc(N4C[C@@H](C)O[C@@H](C)C4)nc3n2)cc1CO [KU0063794] (first compound 0.015 µM, partner dose 0.02 µM), the “cleaved PARP positive nuclei fraction” value worked out at 84.3%. As for `CC1(C)CCC(c2ccc(Cl)cc2)=C(CN2CCN(c3ccc(C(=O)NS(=O)(=O)c4ccc(N[C@H](CCN5CCOCC5)CSc5ccccc5)c(S(=O)(=O)C(F)(F)F)c4)cc3)CC2)C1` + CN(NC(=O)CC(=O)NN(C)C(=S)c1ccccc1)C(=S)c1ccccc1 [STA4783] (first compound 0.4 µM, partner dose 0.006 µM), the “cleaved PARP positive nuclei fraction” value was 676%.

In the case of `NC(=O)c1ccc(N(C(N)=O)c2c(F)cccc2F)nc1-c1ccc(F)cc1F` + C=CCNC1=C2C[C@@H](C)C[C@H](OC)[C@H](O)[C@@H](C)/C=C(\C)[C@H](OC(N)=O)[C@@H](OC)/C=C\C=C(/C)C(=O)NC(=CC1=O)C2=O [Tanespimycin] (first compound 0.4 µM, partner dose 0.002 µM), the “cleaved PARP positive nuclei fraction” value turned out to be 154%.

As to `Cn1cnc2c(F)c(Nc3ccc(Br)cc3Cl)c(C(=O)NOCCO)cc21` [selumetinib] + Cn1c(Nc2ccc(C(F)(F)F)cc2)nc2cc(Oc3ccnc(-c4ncc(C(F)(F)F)[nH]4)c3)ccc21 [CHIR265] (first compound 0.015 µM, partner dose 0.08 µM), the “cleaved PARP positive nuclei fraction” value came out at 1080%.

As for `NC(=O)c1ccc(N(C(N)=O)c2c(F)cccc2F)nc1-c1ccc(F)cc1F` + C[C@]1(c2nc3c(C(N)=O)cccc3[nH]2)CCCN1 [Veliparib] (first compound 0.4 µM, partner dose 1.4 µM), the “cleaved PARP positive nuclei fraction” value was found to be 203%.
